Test results published in patent US20240122983A1.
Results are given in words; binding and its absence hold for the method and conditions named. Some entries that bind do so weakly or less than the wild type. One block for each substance: values may come before it.

Amino acid sequences for entries named in this document (tags omitted). A change or cut given only in a name is not applied to a line headed by its entry. Residues count along the entry.
UniProt P49772: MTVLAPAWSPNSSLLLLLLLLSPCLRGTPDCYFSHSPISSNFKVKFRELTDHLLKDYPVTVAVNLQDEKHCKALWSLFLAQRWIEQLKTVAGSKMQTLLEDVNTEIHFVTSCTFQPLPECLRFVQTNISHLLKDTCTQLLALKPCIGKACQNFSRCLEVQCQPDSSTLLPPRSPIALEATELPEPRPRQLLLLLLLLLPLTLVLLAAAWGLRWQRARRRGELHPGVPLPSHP
UniProt P41274, residues 104-309: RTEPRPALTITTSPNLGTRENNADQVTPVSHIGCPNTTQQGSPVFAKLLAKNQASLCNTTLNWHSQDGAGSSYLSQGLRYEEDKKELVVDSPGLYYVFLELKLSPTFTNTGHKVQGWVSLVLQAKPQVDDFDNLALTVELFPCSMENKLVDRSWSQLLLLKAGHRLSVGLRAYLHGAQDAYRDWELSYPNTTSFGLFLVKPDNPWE
UniProt P43488, residues 51-198: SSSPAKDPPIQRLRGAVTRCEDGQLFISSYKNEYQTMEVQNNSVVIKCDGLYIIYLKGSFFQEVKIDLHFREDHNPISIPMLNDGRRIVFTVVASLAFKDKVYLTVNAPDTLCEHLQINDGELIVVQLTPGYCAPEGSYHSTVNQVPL
UniProt P27548, residues 112-260: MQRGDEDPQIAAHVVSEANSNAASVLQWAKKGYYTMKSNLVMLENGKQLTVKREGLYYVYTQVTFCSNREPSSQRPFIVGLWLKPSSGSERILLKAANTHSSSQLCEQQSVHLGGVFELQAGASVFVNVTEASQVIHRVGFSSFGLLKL

Assays:
[1] = target: T1, recombinant mouse mFLT3 protein (mouse) (UniProt Q00342); assay: ELISA, as printed here: plate-bound mFlt3 (2.5ug/ml), goat anti-mFlt3L (1:10,000), anti-Goat IgG-HRO (1:10,000)
T1 sequence (looked up): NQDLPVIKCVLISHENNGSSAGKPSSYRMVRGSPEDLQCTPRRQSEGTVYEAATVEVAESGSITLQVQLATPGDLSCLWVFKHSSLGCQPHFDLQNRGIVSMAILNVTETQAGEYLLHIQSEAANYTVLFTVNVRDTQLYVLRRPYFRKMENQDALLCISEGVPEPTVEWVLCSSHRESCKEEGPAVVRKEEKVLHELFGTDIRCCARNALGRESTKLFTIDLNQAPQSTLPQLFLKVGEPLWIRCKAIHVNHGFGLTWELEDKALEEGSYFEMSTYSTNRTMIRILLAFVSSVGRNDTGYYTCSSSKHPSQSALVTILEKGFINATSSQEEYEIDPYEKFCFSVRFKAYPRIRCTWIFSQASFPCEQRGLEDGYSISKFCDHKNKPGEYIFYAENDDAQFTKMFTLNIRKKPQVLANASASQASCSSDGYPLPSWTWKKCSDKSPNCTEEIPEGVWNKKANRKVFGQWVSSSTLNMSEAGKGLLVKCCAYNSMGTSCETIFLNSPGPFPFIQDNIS

[2] = target: T1, recombinant mouse mFLT3 protein (mouse); assay: ELISA: plate-bound mFlt3 (10ug/ml), detection goat anti-mFlt3L (1:1000) and anti-goat IgG (10,000)
[3] = target: T1, recombinant mouse mFLT3 protein (mouse); assay: ELISA, plate-bound recombinant mouse mFLT3, detection with anti-mFLT3L antibody and HRP
[4] = target: T2, recombinant mouse m4-1BB protein (mouse) (UniProt P20334); assay: ELISA, plate-bound recombinant mouse m4-1BB, detection with anti-m4-1BBL antibody and HRP
T2 sequence (looked up): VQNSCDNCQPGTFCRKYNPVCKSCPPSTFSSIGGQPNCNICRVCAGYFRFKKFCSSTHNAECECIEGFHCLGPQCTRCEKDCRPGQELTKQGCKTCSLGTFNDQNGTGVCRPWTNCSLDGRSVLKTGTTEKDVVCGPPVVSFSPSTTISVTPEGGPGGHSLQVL

[5] = target: T2, recombinant mouse m4-1BB protein (mouse); assay: Dual ELISA: capture anti-FLT3L (R&D AF427), detection with m41BB-His (Acro), tertiary anti-His/HRP (Abcam)
[6] = target: T2, recombinant mouse m4-1BB protein (mouse); assay: ELISA: plate-bound m41BB (3.3ug/ml), detection anti-m41BBL (1:1000) and anti-goat IgG (1:10,000)
[7] = target: T3, recombinant mouse mGITR protein (mouse) (UniProt O35714); assay: ELISA, plate-bound recombinant mouse mGITR, detection with anti-mGITRL antibody and HRP
T3 sequence (looked up): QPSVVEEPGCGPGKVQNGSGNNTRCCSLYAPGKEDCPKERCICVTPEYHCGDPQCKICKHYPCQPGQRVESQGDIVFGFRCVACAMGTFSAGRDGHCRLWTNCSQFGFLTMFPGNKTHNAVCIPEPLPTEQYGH

[8] = target: T3, recombinant mouse mGITR protein (mouse); assay: ELISA: plate-bound mGITR (3.3ug/ml), detection anti-mGITRL (1:1000) and anti-Rat IgG (1:10,000)
[9] = target: T4, recombinant mouse mOX40 protein (mouse) (UniProt P47741); assay: ELISA, plate-bound recombinant mouse mOX40, detection with anti-mOX40L antibody and HRP
T4 sequence (looked up): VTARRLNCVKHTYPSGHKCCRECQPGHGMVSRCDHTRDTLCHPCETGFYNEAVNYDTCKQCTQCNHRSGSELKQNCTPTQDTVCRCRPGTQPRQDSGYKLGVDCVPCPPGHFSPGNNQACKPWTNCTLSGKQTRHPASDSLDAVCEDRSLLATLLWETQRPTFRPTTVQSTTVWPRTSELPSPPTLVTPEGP

[10] = target: T4, recombinant mouse mOX40 protein (mouse); assay: ELISA: plate-bound mOX40 (5ug/ml), detection anti-mOX40L (1:1000) and anti-goat IgG (1:10,000)
[11] = target: T4, recombinant mouse mOX40 protein (mouse); assay: Dual ELISA: capture anti-FLT3L (R&D AF427), detection with mOX40-His (Acro), tertiary anti-His/HRP (Abcam)
[12] = target: T5, recombinant mouse mCD40 protein (mouse) (UniProt P27512); assay: Dual ELISA: capture anti-FLT3L (R&D AF427), detection with mCD40-His (Acro), tertiary anti-His/HRP (Abcam)
T5 sequence (looked up): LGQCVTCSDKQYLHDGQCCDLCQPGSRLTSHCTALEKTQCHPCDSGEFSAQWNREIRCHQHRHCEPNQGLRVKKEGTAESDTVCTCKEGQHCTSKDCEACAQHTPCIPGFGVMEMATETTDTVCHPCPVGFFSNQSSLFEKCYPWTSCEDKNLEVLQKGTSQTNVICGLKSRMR

[13] = target: T5, recombinant mouse mCD40 protein (mouse); assay: ELISA: plate-bound mCD40 (5ug/ml), detection anti-mCD40L (1:1000) and anti-goat IgG (1:10,000)
[14] = target: T5, recombinant mouse mCD40 protein (mouse); assay: Octet biolayer interferometry, mCD40-his captured on the sensor
[15] = target: T5, recombinant mouse mCD40 protein (mouse); assay: ELISA, plate-bound recombinant mouse mCD40, detection with anti-mCD40L antibody and HRP
[16] = target: T1, recombinant mouse mFLT3 protein (mouse); assay: Octet biolayer interferometry, mFLT3-his captured on the sensor

binding [1]: binds | binding [2]: binds | binding [3]: binds | binding [4]: binds | binding [5]: binds | binding [6]: binds
Substance: mFLT3L-Fc-4-1BBL chimeric protein (from UniProt P49772 27-189; P01868 98-324; P41274 104-309) (Fc fusion)

binding [1]: binds | binding [2]: binds | binding [3]: binds | binding [7]: binds | binding [8]: binds
Substance: mFLT3L-Fc-GITRL chimeric protein (from UniProt P49772 27-189; P01868 98-324; Q7TS55 42-173) (Fc fusion)

binding [1]: binds | binding [9]: binds | binding [2]: binds | binding [3]: binds | binding [10]: binds | binding [11]: binds
Substance: mFLT3L-Fc-OX40L chimeric protein (from UniProt P49772 27-189; P01868 98-324; P43488 51-198) (Fc fusion)

binding [12]: binds | binding [1]: binds | binding [13]: binds | binding [2]: binds | binding [3]: binds | binding [14]: binds | binding [15]: binds | binding [16]: binds
Substance: mFLT3L-Fc-CD40L chimeric protein (from UniProt P49772 27-189; P01868 98-324; P27548 47-260) (Fc fusion)

binding [14]: binds
Substance: mCD40L-Fc (Acro) (from UniProt P27548) (Fc fusion)

binding [13]: binds
Substance: Standard(mCD40L) (from UniProt P27548) (ligand)

binding [6]: binds
Substance: Standard(m41BBL) (from UniProt P41274) (ligand)

binding [10]: binds
Substance: Standard(mOX40L) (from UniProt P43488) (ligand)
